According to the supplement of paper PMC10849652:
This is one part of the list.

Sequences of proteins named here, by UniProt entry; tags and fusion partners are left off. A change or cut given only in a name is not applied to a line headed by its entry.
UniProt O94953: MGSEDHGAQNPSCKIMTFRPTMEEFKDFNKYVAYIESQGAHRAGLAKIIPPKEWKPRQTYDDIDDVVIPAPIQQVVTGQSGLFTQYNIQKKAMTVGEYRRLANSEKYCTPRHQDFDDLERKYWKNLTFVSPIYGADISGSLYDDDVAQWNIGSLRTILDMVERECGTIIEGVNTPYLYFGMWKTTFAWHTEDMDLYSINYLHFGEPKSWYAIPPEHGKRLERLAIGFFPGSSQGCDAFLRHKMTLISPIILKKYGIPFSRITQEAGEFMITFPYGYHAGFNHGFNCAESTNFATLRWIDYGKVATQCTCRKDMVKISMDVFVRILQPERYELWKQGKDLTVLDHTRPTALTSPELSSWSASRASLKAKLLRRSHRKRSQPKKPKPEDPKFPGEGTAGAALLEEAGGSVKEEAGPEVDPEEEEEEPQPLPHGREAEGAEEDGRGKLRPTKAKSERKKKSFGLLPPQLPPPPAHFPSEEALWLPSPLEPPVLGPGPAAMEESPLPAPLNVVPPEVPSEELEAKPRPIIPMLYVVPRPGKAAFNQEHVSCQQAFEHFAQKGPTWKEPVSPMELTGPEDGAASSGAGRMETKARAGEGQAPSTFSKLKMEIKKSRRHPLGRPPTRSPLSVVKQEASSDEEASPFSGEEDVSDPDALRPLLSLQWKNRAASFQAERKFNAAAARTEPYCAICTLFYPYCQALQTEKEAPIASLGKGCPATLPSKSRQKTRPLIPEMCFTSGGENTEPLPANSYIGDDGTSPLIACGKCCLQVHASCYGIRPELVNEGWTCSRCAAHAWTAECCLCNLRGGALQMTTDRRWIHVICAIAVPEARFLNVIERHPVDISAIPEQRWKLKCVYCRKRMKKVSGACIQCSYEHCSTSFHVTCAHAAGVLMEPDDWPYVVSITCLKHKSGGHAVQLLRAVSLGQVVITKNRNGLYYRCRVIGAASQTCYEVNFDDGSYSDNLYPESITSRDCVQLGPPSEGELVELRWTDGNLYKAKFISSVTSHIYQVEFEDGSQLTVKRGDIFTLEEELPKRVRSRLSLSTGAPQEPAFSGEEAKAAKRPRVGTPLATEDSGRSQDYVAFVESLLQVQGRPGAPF
UniProt Q6PID8: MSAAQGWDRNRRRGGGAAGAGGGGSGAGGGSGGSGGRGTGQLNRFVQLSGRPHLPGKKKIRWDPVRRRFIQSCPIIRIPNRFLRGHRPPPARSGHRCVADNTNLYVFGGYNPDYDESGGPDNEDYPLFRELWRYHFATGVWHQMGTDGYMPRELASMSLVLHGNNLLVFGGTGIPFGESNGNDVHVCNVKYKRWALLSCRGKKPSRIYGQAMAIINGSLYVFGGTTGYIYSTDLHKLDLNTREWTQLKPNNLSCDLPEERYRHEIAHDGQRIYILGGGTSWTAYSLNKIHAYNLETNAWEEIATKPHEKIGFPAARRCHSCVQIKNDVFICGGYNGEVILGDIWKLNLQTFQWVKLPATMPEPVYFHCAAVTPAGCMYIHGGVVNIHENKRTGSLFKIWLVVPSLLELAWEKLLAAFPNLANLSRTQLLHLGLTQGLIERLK
UniProt Q8IZD2: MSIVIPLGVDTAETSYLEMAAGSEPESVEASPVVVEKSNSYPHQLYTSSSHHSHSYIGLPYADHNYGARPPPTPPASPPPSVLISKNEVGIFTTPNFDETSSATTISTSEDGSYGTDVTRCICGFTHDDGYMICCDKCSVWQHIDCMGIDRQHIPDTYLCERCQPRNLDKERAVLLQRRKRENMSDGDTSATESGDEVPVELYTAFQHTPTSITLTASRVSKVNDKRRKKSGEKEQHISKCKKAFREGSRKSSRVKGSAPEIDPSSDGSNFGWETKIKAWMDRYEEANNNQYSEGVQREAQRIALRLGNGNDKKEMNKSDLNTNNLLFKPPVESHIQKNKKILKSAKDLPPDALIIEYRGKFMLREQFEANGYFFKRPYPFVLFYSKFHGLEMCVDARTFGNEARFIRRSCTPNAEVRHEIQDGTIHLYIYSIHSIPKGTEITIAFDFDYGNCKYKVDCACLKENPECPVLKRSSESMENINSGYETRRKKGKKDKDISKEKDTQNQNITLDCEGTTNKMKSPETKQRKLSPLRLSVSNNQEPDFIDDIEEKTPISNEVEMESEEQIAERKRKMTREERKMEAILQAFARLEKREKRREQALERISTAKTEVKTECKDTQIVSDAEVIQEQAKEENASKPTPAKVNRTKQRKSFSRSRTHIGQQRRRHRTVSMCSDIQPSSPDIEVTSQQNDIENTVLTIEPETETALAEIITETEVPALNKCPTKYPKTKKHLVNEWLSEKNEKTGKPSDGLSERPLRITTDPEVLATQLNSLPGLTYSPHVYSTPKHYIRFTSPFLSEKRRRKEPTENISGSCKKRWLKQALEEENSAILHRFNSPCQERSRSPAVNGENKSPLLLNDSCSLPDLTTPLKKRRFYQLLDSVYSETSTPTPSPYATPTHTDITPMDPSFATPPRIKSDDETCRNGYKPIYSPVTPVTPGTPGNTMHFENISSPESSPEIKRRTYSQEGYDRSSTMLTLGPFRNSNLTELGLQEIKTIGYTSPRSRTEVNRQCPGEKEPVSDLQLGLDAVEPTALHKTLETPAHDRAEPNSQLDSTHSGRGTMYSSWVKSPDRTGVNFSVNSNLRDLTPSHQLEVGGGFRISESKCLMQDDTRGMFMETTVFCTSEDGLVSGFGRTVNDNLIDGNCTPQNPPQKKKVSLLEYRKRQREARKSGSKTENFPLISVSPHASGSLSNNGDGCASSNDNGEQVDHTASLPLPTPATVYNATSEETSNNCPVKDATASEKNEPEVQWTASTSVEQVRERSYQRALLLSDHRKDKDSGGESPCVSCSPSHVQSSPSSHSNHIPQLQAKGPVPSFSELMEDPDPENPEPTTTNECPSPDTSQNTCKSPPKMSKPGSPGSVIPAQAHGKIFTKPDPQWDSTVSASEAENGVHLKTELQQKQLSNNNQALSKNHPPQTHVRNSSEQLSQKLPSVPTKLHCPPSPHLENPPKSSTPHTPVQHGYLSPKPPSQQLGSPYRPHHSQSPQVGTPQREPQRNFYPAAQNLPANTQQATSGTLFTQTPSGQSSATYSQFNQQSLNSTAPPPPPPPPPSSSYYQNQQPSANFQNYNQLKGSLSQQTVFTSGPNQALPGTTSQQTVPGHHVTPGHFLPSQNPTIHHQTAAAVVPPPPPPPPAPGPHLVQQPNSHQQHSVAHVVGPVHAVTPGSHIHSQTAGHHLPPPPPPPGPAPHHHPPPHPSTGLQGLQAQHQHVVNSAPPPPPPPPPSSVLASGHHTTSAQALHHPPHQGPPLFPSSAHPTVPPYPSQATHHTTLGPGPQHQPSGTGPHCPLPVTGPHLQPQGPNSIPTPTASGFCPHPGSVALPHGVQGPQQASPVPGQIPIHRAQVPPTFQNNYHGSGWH
UniProt O75037: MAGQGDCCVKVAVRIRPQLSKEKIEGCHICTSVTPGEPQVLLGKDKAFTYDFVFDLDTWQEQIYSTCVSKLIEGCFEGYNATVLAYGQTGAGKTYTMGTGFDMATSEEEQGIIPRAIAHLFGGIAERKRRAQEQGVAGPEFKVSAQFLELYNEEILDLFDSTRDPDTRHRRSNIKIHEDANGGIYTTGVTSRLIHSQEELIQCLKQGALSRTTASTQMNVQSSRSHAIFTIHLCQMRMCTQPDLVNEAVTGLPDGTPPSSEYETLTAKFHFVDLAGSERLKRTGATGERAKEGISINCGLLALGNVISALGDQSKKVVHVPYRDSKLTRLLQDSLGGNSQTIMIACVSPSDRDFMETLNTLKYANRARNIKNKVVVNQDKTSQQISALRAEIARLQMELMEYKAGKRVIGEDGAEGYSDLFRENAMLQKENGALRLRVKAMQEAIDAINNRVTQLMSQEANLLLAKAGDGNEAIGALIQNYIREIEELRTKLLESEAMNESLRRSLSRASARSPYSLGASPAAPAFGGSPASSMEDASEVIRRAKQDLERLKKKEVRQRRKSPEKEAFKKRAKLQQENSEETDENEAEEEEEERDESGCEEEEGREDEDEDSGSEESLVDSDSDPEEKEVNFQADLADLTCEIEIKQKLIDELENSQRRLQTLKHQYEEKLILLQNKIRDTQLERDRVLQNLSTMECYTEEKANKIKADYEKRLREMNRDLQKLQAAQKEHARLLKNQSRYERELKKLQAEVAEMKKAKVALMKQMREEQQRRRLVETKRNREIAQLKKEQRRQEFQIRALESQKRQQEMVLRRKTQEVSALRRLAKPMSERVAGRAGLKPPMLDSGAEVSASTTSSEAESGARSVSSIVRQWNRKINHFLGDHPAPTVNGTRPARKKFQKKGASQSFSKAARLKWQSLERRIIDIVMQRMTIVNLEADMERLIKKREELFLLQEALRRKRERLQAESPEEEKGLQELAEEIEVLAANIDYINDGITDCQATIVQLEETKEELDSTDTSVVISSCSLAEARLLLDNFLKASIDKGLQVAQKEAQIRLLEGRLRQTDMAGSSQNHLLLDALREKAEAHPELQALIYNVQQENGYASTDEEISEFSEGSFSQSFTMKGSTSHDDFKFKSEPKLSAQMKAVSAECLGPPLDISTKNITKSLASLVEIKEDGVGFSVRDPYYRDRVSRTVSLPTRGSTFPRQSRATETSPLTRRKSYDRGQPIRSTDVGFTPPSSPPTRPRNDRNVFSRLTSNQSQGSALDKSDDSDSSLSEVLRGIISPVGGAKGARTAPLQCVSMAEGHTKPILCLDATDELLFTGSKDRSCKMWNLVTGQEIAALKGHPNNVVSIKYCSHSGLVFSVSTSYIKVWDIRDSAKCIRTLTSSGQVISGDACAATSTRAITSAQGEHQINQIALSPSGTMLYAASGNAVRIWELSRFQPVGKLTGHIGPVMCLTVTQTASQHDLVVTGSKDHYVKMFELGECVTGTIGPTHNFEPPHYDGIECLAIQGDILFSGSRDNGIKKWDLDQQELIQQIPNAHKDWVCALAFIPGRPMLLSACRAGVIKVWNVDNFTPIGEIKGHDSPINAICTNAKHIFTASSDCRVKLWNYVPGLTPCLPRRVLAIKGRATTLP
UniProt O15037: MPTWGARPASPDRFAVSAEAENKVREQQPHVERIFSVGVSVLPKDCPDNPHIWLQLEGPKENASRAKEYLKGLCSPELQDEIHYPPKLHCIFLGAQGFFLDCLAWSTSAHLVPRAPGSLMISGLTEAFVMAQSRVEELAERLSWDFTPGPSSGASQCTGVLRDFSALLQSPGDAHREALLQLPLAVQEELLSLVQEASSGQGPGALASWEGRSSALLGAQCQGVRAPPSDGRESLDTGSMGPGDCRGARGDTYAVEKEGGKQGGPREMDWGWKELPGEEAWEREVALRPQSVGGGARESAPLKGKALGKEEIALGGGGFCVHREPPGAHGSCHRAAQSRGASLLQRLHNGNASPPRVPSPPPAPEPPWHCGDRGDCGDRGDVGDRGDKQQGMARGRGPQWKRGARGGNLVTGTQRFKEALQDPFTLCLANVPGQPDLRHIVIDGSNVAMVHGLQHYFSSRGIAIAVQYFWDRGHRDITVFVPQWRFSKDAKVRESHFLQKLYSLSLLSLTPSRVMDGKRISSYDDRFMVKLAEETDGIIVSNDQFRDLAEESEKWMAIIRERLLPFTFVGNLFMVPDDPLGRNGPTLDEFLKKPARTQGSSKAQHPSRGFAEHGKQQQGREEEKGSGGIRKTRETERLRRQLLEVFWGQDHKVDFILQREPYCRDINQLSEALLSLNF
UniProt Q8IXV7: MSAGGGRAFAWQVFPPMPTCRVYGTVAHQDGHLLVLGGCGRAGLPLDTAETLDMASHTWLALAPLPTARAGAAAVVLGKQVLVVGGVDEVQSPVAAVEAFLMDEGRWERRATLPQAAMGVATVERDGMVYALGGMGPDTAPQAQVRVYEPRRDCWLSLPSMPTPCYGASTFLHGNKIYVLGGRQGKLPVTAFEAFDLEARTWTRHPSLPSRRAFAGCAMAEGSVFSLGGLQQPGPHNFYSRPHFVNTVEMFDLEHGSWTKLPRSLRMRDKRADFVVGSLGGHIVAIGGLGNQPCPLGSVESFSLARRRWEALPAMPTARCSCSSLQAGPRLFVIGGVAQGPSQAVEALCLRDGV
UniProt Q9P2K6: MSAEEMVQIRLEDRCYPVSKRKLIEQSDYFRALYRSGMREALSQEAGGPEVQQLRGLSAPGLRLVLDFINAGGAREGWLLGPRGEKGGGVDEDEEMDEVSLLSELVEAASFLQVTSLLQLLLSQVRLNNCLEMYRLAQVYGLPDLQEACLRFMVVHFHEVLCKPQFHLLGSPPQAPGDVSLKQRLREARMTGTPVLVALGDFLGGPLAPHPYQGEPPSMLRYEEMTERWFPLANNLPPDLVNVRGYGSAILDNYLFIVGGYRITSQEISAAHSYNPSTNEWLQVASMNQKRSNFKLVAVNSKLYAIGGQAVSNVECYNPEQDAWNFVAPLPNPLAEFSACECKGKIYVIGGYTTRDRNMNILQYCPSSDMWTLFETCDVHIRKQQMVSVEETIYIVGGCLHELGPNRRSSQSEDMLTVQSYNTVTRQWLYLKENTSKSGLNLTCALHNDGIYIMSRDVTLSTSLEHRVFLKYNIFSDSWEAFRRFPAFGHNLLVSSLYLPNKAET

How the values were obtained:
Experiment in all cases: log2 fold change, soluble protein after heating vs DMSO (PISA); higher = thermal stabilisation; K562 lysate, 10 uM; active = over 0.2 and 3.5 SD of the protein, either way, in both replicates (recomputed)
nilotinib = compound: Cc1cn(-c2cc(NC(=O)c3ccc(C)c(Nc4nccc(-c5cccnc5)n4)c3)cc(C(F)(F)F)c2)cn1 [nilotinib]
How it was run: (§1)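 Following dounce homogenisation of K562 pellets in PBS pH 7.4 with 1 mM MgCl2, crude extract at 1 mg/mL protein was incubated for 30 min with 10 μM compound. Aliquots were then heated for 3 min over 48°C-58°C and pooled, NP-40 was added to 0.5% at 4°C, and soluble protein was recovered as the supernatant at 21,000xg for 90 min. Channel-sum-equalised TMTpro 16plex LC-MS/MS quantified this protein. Each value, from duplicates, is a log-two fold change in thermal stability relative to solvent controls.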

[1] = compound: Cc1nc(Nc2n[nH]c3c2CN(C(=O)N[C@H](CN(C)C)c2ccccc2)C3(C)C)c2sccc2n1
How it was run: as §1

dasatinib = compound: Cc1nc(Nc2ncc(C(=O)Nc3c(C)cccc3Cl)s2)cc(N2CCN(CCO)CC2)n1 [dasatinib]
How it was run: as §1

[2] = compound: Cc1ncc(-c2ccnc(Nc3ccc(S(C)(=O)=O)cc3)n2)n1C(C)C
How it was run: as §1

[3] = compound: Cn1cc(-c2ccc3c(c2)CCN3C(=O)Cc2cccc(C(F)(F)F)c2)c2c(N)ncnc21
How it was run: as §1

quisinostat = compound: Cn1cc(CNCC2CCN(c3ncc(C(=O)NO)cn3)CC2)c2ccccc21 [quisinostat]
How it was run: as §1

tipifarnib = compound: Cn1cncc1[C@@](N)(c1ccc(Cl)cc1)c1ccc2c(c1)c(-c1cccc(Cl)c1)cc(=O)n2C [tipifarnib]
How it was run: as §1

[4] = compound: NC(=O)Nc1cc(-c2cccc(F)c2)sc1C(=O)N[C@H]1CCCNC1
How it was run: as §1

[5] = compound: NC(=O)c1cnc(N[C@@H]2CCCC[C@@H]2N)nc1Nc1cccc(-n2nccn2)c1
How it was run: as §1

[6] = compound: NC1(c2ccc(-c3nc4ccn5c(=O)[nH]nc5c4cc3-c3ccccc3)cc2)CCC1
How it was run: as §1

vorinostat = compound: O=C(CCCCCCC(=O)Nc1ccccc1)NO [vorinostat]
How it was run: as §1

silmitasertib = compound: O=C(O)c1ccc2c(c1)nc(Nc1cccc(Cl)c1)c1ccncc12 [silmitasertib]
How it was run: as §1

[7] = compound: O=C1NC(=O)C(c2cnc3ccccn23)=C1c1cn2c3c(cc(F)cc13)CN(C(=O)N1CCCCC1)CC2
How it was run: as §1

[8] = compound: NCC(=O)Nc1ccc(-n2nc(C(F)(F)F)cc2-c2ccc3c(ccc4ccccc43)c2)cc1
How it was run: as §1

entospletinib = compound: c1cn2cc(-c3ccc4cn[nH]c4c3)nc(Nc3ccc(N4CCOCC4)cc3)c2n1 [entospletinib]
How it was run: as §1

Measured: log2 fold change

KLHL26 (UniProt Q53HC5)
inactive: nilotinib 0.087 | [1] 0.141 | dasatinib 0.008 | [2] 0.021 | [3] 0.2 | quisinostat -0.029 | tipifarnib -0.044 | [4] 0.079 | [5] -0.054 | [6] 0.045 | vorinostat -0.015 | silmitasertib 0.04 | [7] 0.02

KIF20B isoform 2 (UniProt Q96Q89)
inactive: nilotinib 0.092 | [1] -0.019 | dasatinib 0.067 | [2] -0.112 | [3] 0.218 | quisinostat -0.214 | tipifarnib -0.07 | [4] -0.01 | [6] -0.219 | [8] 0.025 | vorinostat 0.058 | silmitasertib 0.349 | [7] -0.119 | entospletinib -0.071

KIF16B isoform 2 (UniProt Q96L93)
inactive: nilotinib 0.134 | [1] 0 | dasatinib -0.264 | [2] -0.209 | [3] -0.042 | quisinostat -0.011 | tipifarnib 0.005 | [4] -0.012 | [6] 0.038 | [8] 0.071 | vorinostat -0.113 | silmitasertib 0.131 | [7] 0.009 | entospletinib -0.348

KDM4B (UniProt O94953)
inactive: nilotinib 0.081 | [1] -0.062 | dasatinib -0.084 | [2] -0.234 | [3] 0.06 | quisinostat 0.043 | tipifarnib -0.032 | [4] -0.028 | [6] 0.026 | [8] 0.181 | vorinostat -0.213 | silmitasertib 0.062 | [7] -0.048 | entospletinib -0.078

KDM4C (UniProt Q9H3R0)
inactive: nilotinib 0.069 | [1] -0.176 | dasatinib -0.072 | [2] -0.156 | [3] 0.02 | tipifarnib -0.183

KLHDC10 (UniProt Q6PID8)
inactive: nilotinib 0.029 | [1] -0.018 | dasatinib 0.134 | [2] -0.001 | [3] -0.037 | quisinostat -0.029 | tipifarnib 0.023 | [4] 0.051 | [6] 0.07 | [8] -0.008 | vorinostat -0.077 | silmitasertib -0.146 | [7] -0.014 | entospletinib 0.108

2 consecutive records from above:
KIF16B isoform 2 (UniProt Q96L93)
inactive: nilotinib 0.134 | [1] 0 | dasatinib -0.264 | [2] -0.209 | [3] -0.042 | quisinostat -0.011 | tipifarnib 0.005 | [4] -0.012 | [6] 0.038 | [8] 0.071 | vorinostat -0.113 | silmitasertib 0.131 | [7] 0.009 | entospletinib -0.348

KDM4B (UniProt O94953)
inactive: nilotinib 0.081 | [1] -0.062 | dasatinib -0.084 | [2] -0.234 | [3] 0.06 | quisinostat 0.043 | tipifarnib -0.032 | [4] -0.028 | [6] 0.026 | [8] 0.181 | vorinostat -0.213 | silmitasertib 0.062 | [7] -0.048 | entospletinib -0.078

Later entries

KIAA0586 isoform 3 (UniProt Q9BVV6)
inactive: nilotinib -0.044 | [1] 0.073 | dasatinib -0.132 | [2] -0.02 | [3] -0.05 | quisinostat 0.014 | tipifarnib -0.152 | [4] 0.102 | [6] -0.024 | vorinostat -0.081 | silmitasertib -0.023 | [7] -0.352

KDM4A (UniProt O75164)
inactive: nilotinib -0.065 | [1] -0.019 | dasatinib -0.011 | [2] -0.034 | [3] 0.007 | quisinostat -0.086 | tipifarnib -0.037 | [4] 0.022 | [6] -0.036 | [8] 0.014 | vorinostat -0.154 | silmitasertib 0.082 | [7] -0.026 | entospletinib -0.031

KIF1B isoform 3 (UniProt O60333)
inactive: nilotinib 0.062 | [1] -0.001 | dasatinib 0.429 | [2] 0.008 | [3] -0.044 | quisinostat 0.176 | tipifarnib -0.196 | [4] 0.005 | [6] 0.084 | vorinostat -0.305 | silmitasertib 0.124 | [7] -0.027 | entospletinib -0.041

KMT2E (UniProt Q8IZD2)
inactive: nilotinib -0.05 | [1] 0.01 | dasatinib 0.016 | [2] 0.019 | [3] -0.045 | quisinostat -0.282 | tipifarnib -0.102 | [4] 0.024 | [6] 0.028 | [8] 0.097 | vorinostat -0.139 | silmitasertib -0.053 | [7] 0.05 | entospletinib -0.036

LAMP2 isoform 2 (UniProt P13473)
inactive: nilotinib -0.045 | [1] 0.039 | [2] 0.031 | quisinostat 0.118 | tipifarnib 0.125 | [4] -0.016 | [6] 0.067 | vorinostat 0.081 | silmitasertib -0.004 | [7] 0.033

KIF21B (UniProt O75037)
inactive: nilotinib -0.017 | [1] -0.055 | dasatinib -0.134 | [2] -0.191 | [3] -0.005 | quisinostat -0.364 | tipifarnib 0.043 | [4] 0.047 | [5] 0.052 | [8] 0.229 | [7] 0.02 | entospletinib 0.064

KHNYN (UniProt O15037)
inactive: nilotinib 0.096 | [1] 0.094 | dasatinib 0.011 | [2] -0.082 | [3] 0.023 | quisinostat -0.054 | tipifarnib -0.115 | [4] -0.001 | [6] 0.088 | [8] 0.063 | vorinostat -0.528 | silmitasertib -0.085 | [7] -0.044 | entospletinib 0.048

KYNU (UniProt Q16719)
inactive: nilotinib -0.044 | [1] 0.039 | dasatinib 0.19 | [2] -0.103 | [3] -0.058 | quisinostat -0.033 | tipifarnib 0.093 | [4] 0.044 | [5] 0.008 | [6] -0.003 | [8] -0.023 | vorinostat 0.14 | silmitasertib 0 | [7] 0.112 | entospletinib 0.006

L3MBTL2 (UniProt Q969R5)
inactive: nilotinib 0.023 | [1] 0.139 | dasatinib 0.089 | [2] 0.034 | [3] 0.027 | quisinostat 0.089 | tipifarnib -0.215 | [4] -0.034 | [7] -0.023 | entospletinib -0.002

KLHDC8B (UniProt Q8IXV7)
inactive: nilotinib -0.03 | [1] 0.047 | dasatinib -0.013 | [2] -0.181 | [3] -0.035 | quisinostat -0.012 | tipifarnib -0.086 | [4] -0.005 | [6] -0.008 | vorinostat 0.066 | silmitasertib 0.106 | [7] -0.016 | entospletinib -0.148

KLHL42 (UniProt Q9P2K6)
inactive: nilotinib 0.003 | [1] 0.088 | dasatinib 0.048 | [2] -0.04 | [3] 0.032 | quisinostat -0.058 | tipifarnib -0.056 | [4] 0.124 | [5] 0.065 | [6] 0.039 | vorinostat 0.08 | silmitasertib -0.037 | [7] 0.054
